# PubChem BioAssay AID504791 – Drosophila RNAi Screening Center, 2011
# Assay: 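Genes whose knock-down strengthens or weakens small-RNA reporter silencing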 (primary screen)
# Cell system: Drosophila S2-derived reporter cells
# Knock-down reagent: long dsRNA against Drosophila genes, about 150-250 ng dsRNA per well (siRNA assay); about 80-120 ng (miRNA assay)
# Duration: about 5 days (siRNA assay); about 4 days (miRNA assay)
# Treatment: copper sulfate induction of reporters: 25 µM (siRNA assay); 200 mM stated (miRNA assay), 1-2 days before reading
# Detection: 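Per-well ratio of Renilla over firefly light, expressed relative to that plate's average ratio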
# Hit rule: 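First-pass picks had plate-scaled ratios over 1.5 for the siRNA assay, over 1.6 for the miRNA assay, or under 0.6; two distinct dsRNAs had to score alike on retest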
# The deposit covers about 23,000 reagents; this is an unselected part of those with a known target gene and a result. Of all reagents, 199 (0.86%) got an active call. 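Plate-scaled ratios behind the calls are not deposited; printed light signals are raw; many rows marked increased or decreased are still called inactive.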 Unmarked entries are inactive. Names joined by + are all predicted targets of the reagent. Not stated in the record: the direction of the score.
target gene,amplicon,stable siRNA reporter change,"stable assay Renilla, run 1 (luminescence)","stable assay firefly, run 1 (luminescence)"
Cyp28d2,DRSC03299,,7615,4.41e5
CG12730,DRSC17885,,5676,3.54e5
tbrd-1,DRSC14601,,7059,3.49e5
CG34202,DRSC05907,,6698,6.12e5
HINT1,DRSC00548,,7912,4.77e5
cort,DRSC02148,,4827,5.59e5
Fie,DRSC08158,,8448,4.42e5
SiaT,DRSC04494,,6444,2.93e5
Dg,DRSC06718,,6295,3.06e5
CG1774,DRSC15258,,7087,5.16e5
CG32182,DRSC09508,,5635,4.37e5
sip1,DRSC03609,,8098,3.69e5
sip1,DRSC22648,,4151,3.86e5
Orc4,DRSC04634,,9463,2.03e6
CG11398,DRSC18625,,6022,4.29e5
CG8539,DRSC10988,,7538,4.23e5
CG8539,DRSC21798,,10025,5.25e5
SkpD,DRSC22208,,9266,5.65e5
CG14115,DRSC10118,,5466,4.01e5
CG18659,DRSC06784,,5891,3.11e5
sds22,DRSC17052,,6507,3.68e5
tow,DRSC10192,reporter ratio raised past the hit cutoff,4667,1.74e5
tow,DRSC23125,,4918,3.53e5
Nup205,DRSC19432,,9234,3.97e5
Clic,DRSC19364,,6079,4.64e5
CG10026,DRSC02010,,7515,4.10e5
CG14374,DRSC14834,,7931,4.67e5
Rpp20 + CG33932,DRSC19467,,5983,4.94e5
Dsk,DRSC12347,,8029,4.74e5
CG12605,DRSC08286,,6467,3.73e5
CG32163,DRSC09442,,6239,4.27e5
Polr2B,DRSC16831,,5251,2.66e5
CG8353,DRSC03084,,7319,3.50e5
CG34454,DRSC07864,,5351,4.16e5
Tes,DRSC06996,,6474,3.10e5
CG3860,DRSC04425,,10943,1.33e6
CG17646,DRSC00507,,11970,3.60e5
Inx3,DRSC14857,,9542,4.91e5
CG11112,DRSC06038,,6790,3.01e5
CG30349,DRSC06421,,6326,4.46e5
CG30349,DRSC06839,,6284,4.77e5
CG6695,DRSC16098,,8788,3.04e5
DCTN2-p50,DRSC07132,,8486,4.18e5
modSP,DRSC16726,,7136,4.14e5
modSP,DRSC16857,,7647,3.68e5
modSP,DRSC21489,,9534,5.24e5
CG6652,DRSC10686,,7710,2.48e5
Cpr76Bc,DRSC11062,,7866,4.71e5
CG10357,DRSC08155,,6283,3.09e5
CG34445,DRSC22404,,4071,4.22e5
CG8490,DRSC07194,,5499,3.69e5
ND-24,DRSC19960,,8019,5.03e5
CG42375 + CG9288,DRSC16468,,8584,7.06e5
Lip3,DRSC16727,,5635,3.50e5
CG15772,DRSC18078,,5159,3.04e5
CG15506,DRSC15047,,6199,3.62e5
CG31637,DRSC02270,,11482,1.14e6
CG31637,DRSC03263,,8924,6.85e5

An excerpt from above, showing only “stable assay Renilla, run 1 (luminescence)”:
CG30349 [DRSC06421]	6326
CG30349 [DRSC06839]	6284
CG6695 [DRSC16098]	8788
DCTN2-p50 [DRSC07132]	8486
modSP [DRSC16726]	7136
modSP [DRSC16857]	7647
modSP [DRSC21489]	9534
CG6652 [DRSC10686]	7710
